Data on one substance can be found in publication PMC10599732.

Protein sequences, listed by entry. Tags and fused reporters are not part of them.
UniProt P09936: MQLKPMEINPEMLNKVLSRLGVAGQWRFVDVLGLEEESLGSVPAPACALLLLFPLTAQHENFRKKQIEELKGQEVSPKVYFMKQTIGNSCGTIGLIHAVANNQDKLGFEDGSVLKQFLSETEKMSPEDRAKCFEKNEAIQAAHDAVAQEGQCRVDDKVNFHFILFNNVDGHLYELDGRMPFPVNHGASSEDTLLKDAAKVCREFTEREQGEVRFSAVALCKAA
UniProt P14618: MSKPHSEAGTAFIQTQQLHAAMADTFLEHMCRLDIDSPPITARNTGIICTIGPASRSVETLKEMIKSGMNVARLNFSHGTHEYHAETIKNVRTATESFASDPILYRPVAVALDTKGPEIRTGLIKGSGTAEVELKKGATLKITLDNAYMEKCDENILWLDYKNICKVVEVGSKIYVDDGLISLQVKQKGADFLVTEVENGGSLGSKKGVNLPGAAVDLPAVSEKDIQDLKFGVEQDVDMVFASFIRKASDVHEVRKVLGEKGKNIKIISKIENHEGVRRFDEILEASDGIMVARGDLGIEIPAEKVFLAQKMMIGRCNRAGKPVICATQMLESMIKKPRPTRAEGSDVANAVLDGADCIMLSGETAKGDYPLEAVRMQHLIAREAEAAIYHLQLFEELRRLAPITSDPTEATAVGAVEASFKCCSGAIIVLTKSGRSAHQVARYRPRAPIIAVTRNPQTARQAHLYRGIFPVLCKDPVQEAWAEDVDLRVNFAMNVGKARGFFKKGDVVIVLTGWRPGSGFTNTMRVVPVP

Results are given in words; binding and its absence hold for the method and conditions named. In cells and extracts the contact can be indirect. These calls come from enrichment with a bait or labelling near it, and not all partners need be listed.

The assay concerns the target Ubiquitin Carboxy-Terminal Hydrolase L1 (human (endogenous in T24 and J82)) (UniProt P09936). The assay can be described thus: affinity purification with mass spectrometry; anti-UCHL1 immunoprecipitate of UBC cell line lysate, Coomassie staining and MS (text: GST pull-down assay followed by IP-MS).

Turning to “Pyruvate kinase M2 (from UniProt P14618 1-531) (enzyme)”, the binding result is on record as “binds”.
